Test results published in patent US20130330359A1.
Substitutions are numbered along the chain they refer to. These are yes or no findings as the source states them, for the method shown. Some binding calls cover weakened binding; strength is not graded here.

Chains of the proteins cited; added tags and fusions are not shown. Residues count along the entry.
UniProt Q6ZVN8, residues 36-400: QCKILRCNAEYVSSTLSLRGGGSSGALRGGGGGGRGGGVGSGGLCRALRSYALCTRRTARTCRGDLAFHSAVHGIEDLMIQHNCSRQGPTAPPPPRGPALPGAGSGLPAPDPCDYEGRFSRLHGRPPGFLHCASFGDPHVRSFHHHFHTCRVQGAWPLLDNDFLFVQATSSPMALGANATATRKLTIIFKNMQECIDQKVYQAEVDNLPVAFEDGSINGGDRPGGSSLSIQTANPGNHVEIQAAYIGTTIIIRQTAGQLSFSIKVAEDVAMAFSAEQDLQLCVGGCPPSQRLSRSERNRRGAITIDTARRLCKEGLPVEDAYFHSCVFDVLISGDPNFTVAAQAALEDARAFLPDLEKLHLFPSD

B1: 1A-2860-475 (antibody, V domains shown)
VH: DVLLQESGPDLVKPSQSLSLTCTVTGYSISSGYSWHWIRQFPGNKLEWMAYIHYTGNTNYNPSLKSRISITRDTSKNQFFLHLNSVTTEDTATYYCALFGLSGFWGQGTLVTVSA
VL: DVLMTQTPLSLPVSLGDQASISCRSSQTIVHSNGNTYLDWYLQKPGQSPKVLIYKVSNRFSGVPDRFSGSGSGTDFTLKISRVEAEDLGVYFCLQGSHVPWTFGGGTQLEIKR
B2: 1B-3363-715 (antibody, V domains shown)
VH: DVQLQESGPDLVKPSQSLSLTCTVTGYSITSGYSWHWIRQFPGNKLEWMGYIHYSGNTDYNPSLKSRISFTRDTSKNQFFLQLNSVTTEDTATYFCAIGTGPWGQGTTLTVSS
VL: B1 VL with T28N, N35H, D39E, V51L, F92Y, L94F, Q108K

Target: carrier free RGMc (R&D Systems) (human) (UniProt Q6ZVN8)
Assay: direct EIA on coated carrier-free RGMc (Table 6)

Binder | binding
B1 | binds
B2 | binds
